US7605134B2, “4″-Deoxy-4″-(s)-amino avermectin derivatives” (Merial Limited, priority 2001, dated 2009)
Some results were stated once for a whole list of compounds, not compound by compound. At least one compound was matched to its structure with a doubt left.

What was measured:
Type in all cases: in vivo
Spodoptera littoralis [1] = assay: Action against Spodoptera littoralis (sprayed soybean plants); conditions: 12.5 ppm active ingredient spray on young soybean plants; first-stage caterpillars; 3 days
Plutella xylostella = assay: Action against Plutella xylostella caterpillars (sprayed cabbage plants); conditions: 12.5 ppm active ingredient spray on young cabbage plants; first-stage caterpillars; 3 days
Tetranychus urticae = assay: Action against Tetranychus urticae (sprayed bean plants); conditions: 12.5 ppm active ingredient spray on young bean plants; mixed population; 6 days at 25° C.
Diabrotica balteata = assay: Action against Diabrotica balteata (sprayed maize seedlings); conditions: 12.5 ppm active ingredient spray on maize seedlings; second-stage larvae; 6 days
Spodoptera littoralis [2] = assay: Systemic action against Spodoptera littoralis (maize seedlings); conditions: maize seedlings laid in test solution 6 days; L1 larvae on cut leaves; 4 days later

CCNC1C(C)OC(OC2C(C)OC(OC3C(C)=CCC4CC(CC5(C=CC(C)C(C(C)CC)O5)O4)OC(=O)C4C=C(C)C(O)C5OCC(=CC=CC3C)C45O)CC2OC)CC1OC [A.4, 4″-Deoxy-4″-(S)-ethylamino-avermecfin B1]
more than 90%: percentage reduction in population and in feeding damage (% activity) (Spodoptera littoralis [1]) | percentage reduction in population and in feeding damage (% activity) (Plutella xylostella) | percentage reduction in population (% activity) (Tetranychus urticae) | percentage reduction in population (% activity) (Diabrotica balteata)

CCCNC1C(C)OC(OC2C(C)OC(OC3C(C)=CCC4CC(CC5(C=CC(C)C(C(C)CC)O5)O4)OC(=O)C4C=C(C)C(O)C5OCC(=CC=CC3C)C45O)CC2OC)CC1OC (stereo not shown) [A.19]
more than 90%: percentage reduction in population and in feeding damage (% activity) (Spodoptera littoralis [1]) | percentage reduction in population (% activity) (Spodoptera littoralis [2]) | percentage reduction in population and in feeding damage (% activity) (Plutella xylostella) | percentage reduction in population (% activity) (Tetranychus urticae) | percentage reduction in population (% activity) (Diabrotica balteata)

CCOC(=O)CN(CC)C1C(C)OC(OC2C(C)OC(OC3C(C)=CCC4CC(CC5(C=CC(C)C(C(C)CC)O5)O4)OC(=O)C4C=C(C)C(O)C5OCC(=CC=CC3C)C45O)CC2OC)CC1OC (stereo not shown) [A.28]
more than 90%: percentage reduction in population and in feeding damage (% activity) (Spodoptera littoralis [1]) | percentage reduction in population (% activity) (Spodoptera littoralis [2]) | percentage reduction in population and in feeding damage (% activity) (Plutella xylostella) | percentage reduction in population (% activity) (Tetranychus urticae)
